Measurements: PubChem BioAssay AID328 (DTP/NCI, 2004)
The list shows only some results of the screen, not a fair sample: it gathers tests that were run many times, whatever their T/C, doses with no T/C, and many T/C values between a quarter and a half above the control. Further doses and runs are listed elsewhere. T/C is the treated group as % of the vehicle group. Some entries give survivors of the animals treated and no T/C: the source files T/C as zero there, which appears to mark a toxic dose or a test without result, not a measured value. Some doses without a T/C left all or most animals alive at the check, yet need not have been tolerated: survival well below the control is almost never listed, so the zero probably covers shortened survival too. Survivors were counted at the toxicity check, usually on the fifth day, unless a day is given; later deaths do not show. Schedule codes are those of the source, read here as Q, the interval in days (D) or hours (H), X, the number of doses. Some molecules as drawn cover several salts, stereoisomers or complexes of the source; a dose is that of the sample tested. For survival time, the PubChem record calls one and a half times the control and up active, and a quarter to a half above the control has no call in these data; cut-offs in other NCI protocols can differ. Some entries hold several experiments; their values stand side by side, smallest first.

System: BDF1 mice, P388 leukemia ip, median survival T/C
Assay: NCI In Vivo Anticancer Drug Screen. Data for tumor model P388 Leukemia (intraperitoneal) in B6D2F1 (BDF1) mice
Details: T/C endpoint: median survival time, higher T/C = longer survival
In short: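 Each value expresses how treatment altered survival: treated-mouse outcome over vehicle-mouse outcome, both groups bearing the transplanted tumour.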

[1] = dose: 400.0 mg/kg/injection, schedule: Q01DX009 (ip), vehicle: saline with Tween-80

COC(=O)C12OCC34C(CC5C(C)=C(O)C(=O)CC5(C)C3C(O)C1O)OC(=O)C(OC(=O)CC(C)C(C)C)C24 (centres undefined)
survivor count (dose: 8.0 mg/kg/injection, schedule: Q01DX009 (ip), vehicle: saline + alcohol): 2 of 6
T/C (dose: 13.7 micrograms/kg/injection, schedule: Q01DX009 (ip), vehicle: saline): 125 % of control
T/C (dose: 55.0 micrograms/kg/injection, schedule: Q01DX009 (ip), vehicle: saline): 130 % of control
T/C (dose: 110.0 micrograms/kg/injection, schedule: Q01DX009 (ip), vehicle: saline): 130 % of control
T/C (dose: 125.0 micrograms/kg/injection, schedule: Q01DX009 (ip), vehicle: saline + alcohol): 126 and 136 % of control
T/C (dose: 220.0 micrograms/kg/injection, schedule: Q01DX009 (ip), vehicle: saline): 130 % of control
T/C (dose: 250.0 micrograms/kg/injection, schedule: Q01DX009 (ip), vehicle: saline + alcohol): 130 and 136 % of control
T/C (dose: 500.0 micrograms/kg/injection, schedule: Q01DX009 (ip), vehicle: saline + alcohol): 140 % of control
T/C (dose: 1000.0 micrograms/kg/injection, schedule: Q01DX009 (ip), vehicle: saline + alcohol): 130 % of control
T/C (dose: 2000.0 micrograms/kg/injection, schedule: Q01DX009 (ip), vehicle: saline + alcohol): 130 % of control
T/C (dose: 4000.0 micrograms/kg/injection, schedule: Q01DX009 (ip), vehicle: saline + alcohol): 126 % of control

Nc1ccn(CC(=O)c2cccs2)c(=O)n1
survivor count (dose: 100.0 mg/kg/injection, schedule: Q01DX009 (ip), vehicle: saline with Tween-80): 2 of 6
survivor count (dose: 200.0 mg/kg/injection, schedule: Q01DX009 (ip), vehicle: saline with Tween-80): 1 of 6
survivor count [1]: 0 of 6
survivor count (dose: 400.0 mg/kg/injection, schedule: Q04DX003 (ip), vehicle: saline with Tween-80): 5 of 6

C[P+](c1ccc(F)cc1)(c1ccc(F)cc1)c1ccc(F)cc1
survivor count (dose: 100.0 mg/kg/injection, schedule: Q04DX003 (ip), vehicle: Klucel (hydroxypropylcellulose) (HPC)): 5 of 6

COCCc1ccncc1
survivor count [1]: 1 of 6

COC(=O)c1cc(=O)n(-c2ccccc2C(F)(F)F)c(SC)n1
T/C (dose: 200.0 mg/kg/injection, schedule: Q04DX003 (ip), vehicle: Klucel (hydroxypropylcellulose) (HPC)): 140 % of control

CC1(c2cccs2)C(=O)N(Cl)C(=O)N1Cl (centres undefined)
T/C (dose: 50.0 mg/kg/injection, schedule: Q04DX003 (ip), vehicle: saline): 127 % of control
survivor count (dose: 200.0 mg/kg/injection, schedule: Q04DX003 (ip), vehicle: saline): 6 of 6
survivor count (dose: 400.0 mg/kg/injection, schedule: Q01DX009 (ip), vehicle: saline): 2 of 6
survivor count (dose: 400.0 mg/kg/injection, schedule: Q04DX003 (ip), vehicle: saline): 2 of 6

C#CCN(C)Cc1ccccc1
survivor count (dose: 400.0 mg/kg/injection, schedule: Q01DX010 (ip), vehicle: saline): 0 of 6

NC(=O)C(c1ccccc1)N1CCCCC1 (centres undefined)
survivor count (dose: 25.0 mg/kg/injection, schedule: Q01DX009 (ip), vehicle: Klucel (hydroxypropylcellulose) (HPC)): 6 of 6
survivor count (dose: 100.0 mg/kg/injection, schedule: Q01DX009 (ip), vehicle: Klucel (hydroxypropylcellulose) (HPC)): 5 of 6

CC(CC(=O)O)C(C(=O)O)C(=O)O (centres undefined)
T/C (dose: 6.25 mg/kg/injection, schedule: Q01DX009 (ip), vehicle: water): 128 % of control
T/C (dose: 50.0 mg/kg/injection, schedule: Q01DX009 (ip), vehicle: water): 126 % of control
survivor count (dose: 400.0 mg/kg/injection, schedule: Q04DX003 (ip), vehicle: water): 1 of 6

c1ccc([I+]c2ccccc2)cc1
survivor count (dose: 25.0 mg/kg/injection, schedule: Q04DX003 (ip), vehicle: saline sonified): 6 of 6
survivor count (dose: 50.0 mg/kg/injection, schedule: Q04DX003 (ip), vehicle: saline sonified): 0 of 6
survivor count (dose: 50.0 mg/kg/injection, schedule: Q04DX003 (sc), vehicle: olive oil, sesame oil, peanut oil): 2 of 6
survivor count (dose: 100.0 mg/kg/injection, schedule: Q04DX003 (sc), vehicle: olive oil, sesame oil, peanut oil): 0 of 6
survivor count (dose: 200.0 mg/kg/injection, schedule: Q04DX003 (sc), vehicle: olive oil, sesame oil, peanut oil): 0 of 6
survivor count (dose: 400.0 mg/kg/injection, schedule: Q04DX003 (sc), vehicle: olive oil, sesame oil, peanut oil): 0 of 6
